Some of the results follow. The data scatter; read single values as rough.

Chains of the proteins cited; added tags and fusions are not shown. Lines headed by an entry give the natural chain unless they say otherwise; changes in a name come on top. Residues count along the entry.
UniProt O75152: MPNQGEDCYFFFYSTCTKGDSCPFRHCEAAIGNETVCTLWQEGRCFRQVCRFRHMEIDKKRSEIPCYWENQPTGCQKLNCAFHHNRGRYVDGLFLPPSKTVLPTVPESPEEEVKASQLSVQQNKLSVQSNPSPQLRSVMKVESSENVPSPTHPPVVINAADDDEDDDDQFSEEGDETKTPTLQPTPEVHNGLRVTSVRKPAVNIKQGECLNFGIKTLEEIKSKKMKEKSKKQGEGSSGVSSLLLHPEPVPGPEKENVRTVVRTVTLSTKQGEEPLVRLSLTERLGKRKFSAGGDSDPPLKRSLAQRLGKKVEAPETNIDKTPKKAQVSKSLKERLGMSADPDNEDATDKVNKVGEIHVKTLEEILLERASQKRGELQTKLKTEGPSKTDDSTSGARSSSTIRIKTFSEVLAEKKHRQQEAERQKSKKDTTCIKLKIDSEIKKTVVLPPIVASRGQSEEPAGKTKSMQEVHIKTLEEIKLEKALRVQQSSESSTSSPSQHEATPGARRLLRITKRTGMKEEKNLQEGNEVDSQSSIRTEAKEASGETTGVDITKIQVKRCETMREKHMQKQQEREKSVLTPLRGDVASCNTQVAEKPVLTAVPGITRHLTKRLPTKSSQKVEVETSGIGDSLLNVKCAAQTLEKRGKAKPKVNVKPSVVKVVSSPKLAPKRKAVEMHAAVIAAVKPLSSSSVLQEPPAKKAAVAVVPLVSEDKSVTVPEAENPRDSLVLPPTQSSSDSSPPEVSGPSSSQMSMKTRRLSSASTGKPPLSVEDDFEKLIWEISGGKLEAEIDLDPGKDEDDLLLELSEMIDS
UniProt Q9H6R7: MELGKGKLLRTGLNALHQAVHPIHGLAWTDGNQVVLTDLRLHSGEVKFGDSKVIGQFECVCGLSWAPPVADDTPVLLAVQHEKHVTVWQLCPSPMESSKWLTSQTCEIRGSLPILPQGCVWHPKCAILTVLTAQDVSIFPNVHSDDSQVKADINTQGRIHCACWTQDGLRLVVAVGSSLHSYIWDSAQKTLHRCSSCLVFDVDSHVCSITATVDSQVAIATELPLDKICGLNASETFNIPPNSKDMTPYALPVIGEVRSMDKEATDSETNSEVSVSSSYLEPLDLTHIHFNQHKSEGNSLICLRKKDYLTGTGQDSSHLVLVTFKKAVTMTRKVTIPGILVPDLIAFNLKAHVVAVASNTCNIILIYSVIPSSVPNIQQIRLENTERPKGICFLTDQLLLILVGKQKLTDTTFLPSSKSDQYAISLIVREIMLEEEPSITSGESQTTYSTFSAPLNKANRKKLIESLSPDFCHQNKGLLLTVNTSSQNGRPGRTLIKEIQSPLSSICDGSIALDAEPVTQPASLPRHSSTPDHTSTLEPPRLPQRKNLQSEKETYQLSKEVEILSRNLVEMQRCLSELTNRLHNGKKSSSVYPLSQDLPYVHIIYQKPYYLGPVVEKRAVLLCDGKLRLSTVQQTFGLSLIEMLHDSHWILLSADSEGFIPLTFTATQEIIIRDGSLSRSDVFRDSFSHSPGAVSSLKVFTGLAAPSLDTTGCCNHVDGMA
UniProt Q8NBI6: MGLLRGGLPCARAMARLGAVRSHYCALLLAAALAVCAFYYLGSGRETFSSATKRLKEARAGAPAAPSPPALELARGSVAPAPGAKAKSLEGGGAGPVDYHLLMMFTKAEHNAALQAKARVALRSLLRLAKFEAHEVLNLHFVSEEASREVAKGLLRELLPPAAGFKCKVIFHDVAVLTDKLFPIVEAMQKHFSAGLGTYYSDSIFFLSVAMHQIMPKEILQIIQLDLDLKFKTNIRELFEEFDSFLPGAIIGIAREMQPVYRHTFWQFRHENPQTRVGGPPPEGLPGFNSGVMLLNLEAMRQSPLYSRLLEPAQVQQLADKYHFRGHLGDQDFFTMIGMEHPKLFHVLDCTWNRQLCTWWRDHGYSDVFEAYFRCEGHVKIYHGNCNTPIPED
UniProt Q96QU8: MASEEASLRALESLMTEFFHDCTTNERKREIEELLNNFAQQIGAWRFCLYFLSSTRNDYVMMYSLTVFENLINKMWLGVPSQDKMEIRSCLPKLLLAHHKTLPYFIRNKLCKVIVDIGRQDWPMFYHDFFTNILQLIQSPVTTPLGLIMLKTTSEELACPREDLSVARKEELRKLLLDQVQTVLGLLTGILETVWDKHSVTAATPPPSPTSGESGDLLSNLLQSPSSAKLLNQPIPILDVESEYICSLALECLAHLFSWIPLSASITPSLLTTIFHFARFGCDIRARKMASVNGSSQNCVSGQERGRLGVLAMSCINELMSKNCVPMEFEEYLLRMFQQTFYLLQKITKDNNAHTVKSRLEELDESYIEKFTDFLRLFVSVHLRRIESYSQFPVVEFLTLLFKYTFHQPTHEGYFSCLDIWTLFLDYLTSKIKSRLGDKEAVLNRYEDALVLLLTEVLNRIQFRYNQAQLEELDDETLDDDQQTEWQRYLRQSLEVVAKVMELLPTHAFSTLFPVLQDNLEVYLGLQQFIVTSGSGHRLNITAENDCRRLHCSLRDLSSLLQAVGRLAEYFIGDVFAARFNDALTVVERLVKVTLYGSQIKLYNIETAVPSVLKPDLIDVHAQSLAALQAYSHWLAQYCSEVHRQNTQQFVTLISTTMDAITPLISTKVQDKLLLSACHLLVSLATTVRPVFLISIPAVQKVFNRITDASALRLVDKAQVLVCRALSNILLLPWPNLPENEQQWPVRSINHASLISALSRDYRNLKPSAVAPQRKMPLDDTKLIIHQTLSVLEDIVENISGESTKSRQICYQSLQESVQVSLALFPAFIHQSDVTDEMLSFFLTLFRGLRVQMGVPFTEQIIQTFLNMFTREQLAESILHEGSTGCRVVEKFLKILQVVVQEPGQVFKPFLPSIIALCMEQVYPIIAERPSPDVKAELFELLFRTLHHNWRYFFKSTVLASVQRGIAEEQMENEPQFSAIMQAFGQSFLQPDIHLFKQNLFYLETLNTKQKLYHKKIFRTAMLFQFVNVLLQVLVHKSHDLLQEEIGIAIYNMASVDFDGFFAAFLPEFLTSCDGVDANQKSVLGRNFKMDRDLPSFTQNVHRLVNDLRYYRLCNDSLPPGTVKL
UniProt Q8N3P4: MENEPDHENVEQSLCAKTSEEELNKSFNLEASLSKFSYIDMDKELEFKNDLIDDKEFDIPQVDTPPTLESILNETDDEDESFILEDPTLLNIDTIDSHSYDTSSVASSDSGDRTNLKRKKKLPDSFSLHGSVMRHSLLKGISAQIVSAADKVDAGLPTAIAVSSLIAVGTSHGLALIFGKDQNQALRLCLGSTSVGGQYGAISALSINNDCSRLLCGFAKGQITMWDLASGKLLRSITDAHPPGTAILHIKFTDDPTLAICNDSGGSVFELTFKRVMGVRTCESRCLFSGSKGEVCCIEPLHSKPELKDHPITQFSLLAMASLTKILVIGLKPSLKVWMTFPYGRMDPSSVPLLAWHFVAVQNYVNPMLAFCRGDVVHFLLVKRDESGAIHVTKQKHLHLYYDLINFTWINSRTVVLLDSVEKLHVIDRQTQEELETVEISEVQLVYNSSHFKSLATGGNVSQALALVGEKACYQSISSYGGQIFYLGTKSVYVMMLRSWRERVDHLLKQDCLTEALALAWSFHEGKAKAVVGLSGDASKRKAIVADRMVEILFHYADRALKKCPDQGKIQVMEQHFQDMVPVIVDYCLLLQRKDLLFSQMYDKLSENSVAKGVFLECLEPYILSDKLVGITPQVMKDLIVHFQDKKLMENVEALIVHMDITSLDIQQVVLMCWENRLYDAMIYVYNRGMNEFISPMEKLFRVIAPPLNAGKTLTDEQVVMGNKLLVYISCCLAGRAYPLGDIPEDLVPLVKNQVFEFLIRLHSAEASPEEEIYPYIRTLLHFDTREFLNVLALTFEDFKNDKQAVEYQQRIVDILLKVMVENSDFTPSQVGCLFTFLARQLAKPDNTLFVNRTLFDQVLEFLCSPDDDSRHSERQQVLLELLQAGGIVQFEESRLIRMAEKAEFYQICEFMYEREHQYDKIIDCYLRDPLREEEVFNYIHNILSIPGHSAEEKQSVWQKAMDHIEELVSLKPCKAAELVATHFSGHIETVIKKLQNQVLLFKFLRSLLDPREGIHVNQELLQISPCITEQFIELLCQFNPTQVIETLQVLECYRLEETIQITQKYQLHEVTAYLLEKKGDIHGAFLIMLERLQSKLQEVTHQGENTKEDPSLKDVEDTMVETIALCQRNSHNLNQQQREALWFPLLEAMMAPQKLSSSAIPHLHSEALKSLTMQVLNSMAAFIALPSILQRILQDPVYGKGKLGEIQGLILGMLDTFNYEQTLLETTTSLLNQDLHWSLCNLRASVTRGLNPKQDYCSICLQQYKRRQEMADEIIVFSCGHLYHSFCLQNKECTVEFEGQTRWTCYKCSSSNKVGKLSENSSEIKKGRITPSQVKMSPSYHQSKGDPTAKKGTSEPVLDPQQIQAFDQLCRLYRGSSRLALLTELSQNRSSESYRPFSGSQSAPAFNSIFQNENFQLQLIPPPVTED
UniProt Q9Y2Z4, 395-414: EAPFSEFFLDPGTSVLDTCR
UniProt Q9HAV4, 1113-1132: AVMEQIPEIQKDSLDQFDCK
UniProt Q9BYP7: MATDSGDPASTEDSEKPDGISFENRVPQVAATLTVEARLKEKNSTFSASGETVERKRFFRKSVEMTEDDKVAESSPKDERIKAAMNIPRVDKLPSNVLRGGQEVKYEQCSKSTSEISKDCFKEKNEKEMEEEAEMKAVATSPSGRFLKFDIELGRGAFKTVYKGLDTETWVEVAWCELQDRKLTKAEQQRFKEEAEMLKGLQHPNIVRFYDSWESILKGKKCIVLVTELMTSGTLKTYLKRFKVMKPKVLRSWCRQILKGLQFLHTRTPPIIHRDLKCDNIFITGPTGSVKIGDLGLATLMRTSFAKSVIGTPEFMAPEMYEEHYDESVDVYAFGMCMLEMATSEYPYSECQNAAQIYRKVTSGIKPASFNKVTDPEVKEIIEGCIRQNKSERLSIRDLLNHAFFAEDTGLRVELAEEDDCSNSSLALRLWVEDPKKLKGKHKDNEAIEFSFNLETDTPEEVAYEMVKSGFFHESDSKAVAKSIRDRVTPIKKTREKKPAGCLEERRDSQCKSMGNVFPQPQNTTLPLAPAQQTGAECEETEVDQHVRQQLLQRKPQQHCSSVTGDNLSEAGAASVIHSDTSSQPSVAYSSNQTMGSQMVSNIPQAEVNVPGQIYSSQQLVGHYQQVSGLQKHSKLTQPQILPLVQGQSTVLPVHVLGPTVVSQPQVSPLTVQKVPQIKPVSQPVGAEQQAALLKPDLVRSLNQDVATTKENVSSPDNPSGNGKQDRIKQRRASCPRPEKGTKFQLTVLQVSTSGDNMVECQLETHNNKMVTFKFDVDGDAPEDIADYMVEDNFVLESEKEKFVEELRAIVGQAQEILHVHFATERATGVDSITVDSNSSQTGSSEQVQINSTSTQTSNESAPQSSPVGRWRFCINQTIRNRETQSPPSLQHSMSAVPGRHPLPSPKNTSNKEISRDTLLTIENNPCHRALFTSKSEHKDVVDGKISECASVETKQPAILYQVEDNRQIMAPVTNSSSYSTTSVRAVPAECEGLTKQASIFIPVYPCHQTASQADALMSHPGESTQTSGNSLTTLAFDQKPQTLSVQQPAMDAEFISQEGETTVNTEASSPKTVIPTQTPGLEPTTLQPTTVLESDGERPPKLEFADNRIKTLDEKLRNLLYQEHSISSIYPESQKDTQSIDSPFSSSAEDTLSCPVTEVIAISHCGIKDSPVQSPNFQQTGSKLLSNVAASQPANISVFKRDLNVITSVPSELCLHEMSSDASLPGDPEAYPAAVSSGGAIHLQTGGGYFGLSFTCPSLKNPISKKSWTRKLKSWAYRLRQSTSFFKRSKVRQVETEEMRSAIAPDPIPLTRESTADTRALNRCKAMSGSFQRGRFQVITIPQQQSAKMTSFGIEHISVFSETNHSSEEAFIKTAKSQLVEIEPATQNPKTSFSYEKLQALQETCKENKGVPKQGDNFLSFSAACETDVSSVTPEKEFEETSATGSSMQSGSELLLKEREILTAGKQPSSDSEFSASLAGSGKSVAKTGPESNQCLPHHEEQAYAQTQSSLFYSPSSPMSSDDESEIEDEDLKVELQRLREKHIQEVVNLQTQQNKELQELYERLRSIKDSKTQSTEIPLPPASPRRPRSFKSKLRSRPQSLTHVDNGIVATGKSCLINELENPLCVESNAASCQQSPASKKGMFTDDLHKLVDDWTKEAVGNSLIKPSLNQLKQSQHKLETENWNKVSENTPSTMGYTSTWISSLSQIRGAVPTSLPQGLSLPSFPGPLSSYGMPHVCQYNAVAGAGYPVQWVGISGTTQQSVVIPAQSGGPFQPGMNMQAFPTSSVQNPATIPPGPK

Data on 16 targets can be found in the supplement of paper PMC11732987, “Enantioselective OTUD7B fragment discovery through chemoproteomics screening and high-throughput optimisation” (Communications Chemistry, 2025).

Compound in experiment [1]: ClCC(=O)N[C@@H]1CCCc2ccccc12
Put plainly: log2 mean competition ratio of IA-DTB cysteine labelling (DMSO/compound) (log2 ratio); higher = stronger cysteine engagement by compound. The following applies: treatment time: 4 h, cell line lysate: HEK293T. The method, then: (§1)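 IA-DTB competitive cysteine chemoproteomics in HEK293T RIPA lysate. Lysates were treated with compound 29 or 30 at 50 or 200 µM for 4 h, then IA-DTB (500 µM, 1 h), trypsin-digested, NeutrAvidin-enriched and analysed by diaPASEF. Competition ratio = intensity DMSO / intensity compound (n=4 treated, n=64 DMSO); binding: mean log2 CR ≥ 1 and p ≤ 0.05 plus QC filters. Target is the cysteine site.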

Compound in experiment [2]: ClCC(=O)N[C@H]1CCCc2ccccc12
Described as above. The note with it: treatment time: 4 h, cell line lysate: HEK293T. The method, then:
as §1

As to ZC3H11A C636 (UniProt O75152), the “log2 mean competition ratio” value is 0.112 in experiment [1] (50 µM), -0.147 in experiment [1] (200 µM), 0.468 in experiment [2] (50 µM) and -0.0341 in experiment [2] (200 µM).
For WDR3 C183 (UniProt Q9UNX4), in that order: -0.0999, -0.0617, -0.367 and -0.0568.
For the target WDCP C302 (UniProt Q9H6R7), the “log2 mean competition ratio” value was 0.0477 in experiment [1] (50 µM), 0.0714 in experiment [1] (200 µM), -0.0909 in experiment [2] (50 µM) and 0.114 in experiment [2] (200 µM).
On to VPS35L C253 (UniProt Q7Z3J2), for which the “log2 mean competition ratio” value is -0.418 in experiment [1] (50 µM), -0.109 in experiment [1] (200 µM), -0.327 in experiment [2] (50 µM) and -0.0323 in experiment [2] (200 µM).
Consider XXYLT1 C10 (UniProt Q8NBI6), for which the “log2 mean competition ratio” value in experiment [1] (50 µM) came to 0.169; in experiment [1] (200 µM) it was 0.271; in experiment [2] (50 µM) it was 0.315; in experiment [2] (200 µM), 0.432.
For XPO6 C159 (UniProt Q96QU8), in that order: -0.103, -0.0182, 0.164 and 0.0237.
For XAB2 C676 (UniProt Q9HCS7), in that order: -0.116, 0.311, -0.0029 and 0.317.
In the case of WDCP C472 (UniProt Q9H6R7), the “log2 mean competition ratio” value in experiment [1] (50 µM) amounted to 0.527; in experiment [1] (200 µM), 0.448; in experiment [2] (50 µM), 0.21; in experiment [2] (200 µM), 0.367.
For YTHDF2 C433 (UniProt Q9Y5A9), in that order: -0.0833, -0.0663, -0.48 and -0.0779.
For VPS8 C286 (UniProt Q8N3P4), the “log2 mean competition ratio” value in experiment [1] (50 µM) is -0.0442; in experiment [1] (200 µM), 0.0661; in experiment [2] (50 µM), -0.358; in experiment [2] (200 µM), 0.141.
For YDJC C294 (UniProt A8MPS7), in that order: 0.0495, 0.101, -0.158 and -0.296.
The matching figures for YARS2 C413 (UniProt Q9Y2Z4): -0.206, -0.564, 0.00505 and 0.206.
Consider XPO5 C1131 (UniProt Q9HAV4), for which the “log2 mean competition ratio” value turned out to be 0.11 in experiment [1] (50 µM), 0.165 in experiment [1] (200 µM), 0.51 in experiment [2] (50 µM) and 0.226 in experiment [2] (200 µM).
On to WNK3 C385 (UniProt Q9BYP7), for which the “log2 mean competition ratio” value in experiment [1] (50 µM) was -0.095; in experiment [1] (200 µM), -0.387; in experiment [2] (50 µM), 0.355; in experiment [2] (200 µM) it was -0.199.
XRCC1 C132: the “log2 mean competition ratio” value in experiment [1] (50 µM) was 0.143; in experiment [1] (200 µM) it was -0.0373; in experiment [2] (50 µM), -0.0679; in experiment [2] (200 µM), -0.0169.
XPO6 C547 (UniProt Q96QU8): the “log2 mean competition ratio” value worked out at 0.0708 in experiment [1] (50 µM), 0.267 in experiment [1] (200 µM), 0.064 in experiment [2] (50 µM) and 0.147 in experiment [2] (200 µM).
